From the supplement of paper PMC12889115
Some of the results follow. These are raw signals, not scaled to a control.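 Primary screen: polymyxin B was added at a level permeabilizing Salmonella outer membranes while sparing inner membranes. DMSO wells, both with and without polymyxin B, established maximum growth. Plate-to-plate variation meant each plate was ranked on its own, and the lowest-OD600 compounds were selected as hits.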

System: Salmonella enterica serovar Typhimurium SL1344
Test: bacterial growth OD600 after 18 h with compound and polymyxin B; higher = more bacterial growth (less inhibition)
Details: 50 µM, Mueller-Hinton broth

| SMILES | bacterial growth OD600 (polymyxin B 0.75 µg/mL) | bacterial growth OD600 (polymyxin B 1 µg/mL) |
| --- | --- | --- |
| O=C1CCC(CCNCc2cc3c(cc2Cl)OCO3)N1CC(c1ccccn1)N1CCOCC1 (stereo not given) | 0.856 | – |
| Cc1ccccc1-c1noc(-c2ccc(NCC3COCCO3)nc2)n1 (stereo not given) | 0.495 | – |
| COc1ccccc1-c1cn2c(C(=O)N3CCCCC3c3ccccn3)csc2n1 (stereo not given) | 0.003 | – |
| CN(CC1CCN(CCc2ccc(F)cc2)CC1)C(=O)/C=C/c1cnn(C)c1 | – | 1.04 |
| COc1ccc(CN2CCN(Cc3cc(F)cc(F)c3)CC2CCO)c(C)c1C (stereo not given) | – | 0.898 |
| Cc1ccc2nc(CNC(=O)Cn3nnnc3CN3CCC(C)CC3)cn2c1 | 0.872 | – |
| Cc1cc(CNc2ccc(-c3nc(C4CC4)no3)cn2)no1 | – | 0.983 |
| O=C(Nc1cccc(-n2cccn2)c1)C1CCCN(Cc2cccc(F)c2F)C1 (stereo not given) | – | 0.734 |
| C=CCCC(=O)NCc1cccnc1Oc1c(C)cccc1C | – | 0.894 |
| O=C(CCC1CCN(C(=O)NC2CCS(=O)(=O)C2)CC1)NCc1ccc(F)cc1 (stereo not given) | – | 1.09 |
